# Laboratory results: the supplement of paper PMC11348887
# Where a name gives a salt, the structure may show the parent alone. This is one part of the list. Small differences around the control level are noise.
# Legend:
# Settings in all cases: 5 µM; treatment: days 7-14 after plating, readout day 21
# [1] = test system: hPSC-derived cortical neurons (WA09); experiment: nucleus area z-score vs screen plate; higher = larger nuclei (more mature)
# [2] = test system: hPSC-derived cortical neurons (WA09); experiment: total neurite length per nucleus (MAP2) z-score; higher = more neurite growth
# [3] = test system: hPSC-derived cortical neurons (WA09); experiment: nucleus roundness z-score vs screen plate; higher = rounder nuclei (more mature)
# [4] = test system: hPSC-derived cortical neurons (WA09); experiment: KCl-induced FOS+/EGR-1+ double-positive nuclei fraction z-score (KCl minus unstimulated); higher = stronger activity-induced IEG response
Structure (SMILES),nucleus area z-score [1],total neurite length per nucleus (z-score) [2],nucleus roundness z-score [3],KCl-induced FOS+/EGR-1+ double-positive nuclei fraction z-score [4]
C[C@@]1(c2cc(-c3cncnc3)c(F)cc2F)CCSC(N)=N1,0.471,1.32,1.65,0.921
Oc1c2ccccc2c2c3c(cccc13)N=N2,-1.08,1.91,-0.545,-2.57
Clc1ccc(Nc2nnc(Cc3ccncc3)c3ccccc23)cc1 [Vatalanib (PTK787) 2HCl],0.0506,-0.0301,0.0106,0.339
CCS(=O)(=O)N1CC(CC#N)(n2cc(-c3ncnc4[nH]ccc34)cn2)C1,0.693,-0.0855,-0.383,0.394
COc1ccccc1S(=O)(=O)Nc1ccc2c(c1)CN(C)C(=O)N2,-0.137,-0.561,0.446,0.227
O=C(O)C[C@H](O)C[C@H](O)/C=C/c1c(C2CC2)nc2ccccc2c1-c1ccc(F)cc1 [Pitavastatin Calcium],-5.24,-1.93,-3.8,-1.28
COC(c1ccccc1)(c1ccccc1)[C@H](Oc1nc(C)cc(C)n1)C(=O)O [Ambrisentan],0.719,-0.376,0.139,0.23
COc1cc(C)c(/C=C/C(C)=C/C=C/C(C)=C/C(=O)O)c(C)c1C [Acitretin],0.324,0.17,0.0115,0.892
Cc1cc(N2C[C@@H](C)N[C@@H](C)C2)ncc1-c1ccc(-c2nc3c(ccn3C)c(=O)[nH]2)cc1,-3.59,-2.94,-2.16,-1.13
C[C@H](NCc1ccc(OCc2cccc(F)c2)cc1)C(N)=O [Safinamide Mesylate],0.253,-0.366,-0.185,0.104
Oc1ccc(Cc2nc3c(Cc4ccccc4)nc(-c4ccc(O)cc4)cn3c2O)cc1 [Coelenterazine],2.29,0.45,-0.545,-0.173
O=c1c(O)c(-c2ccc(O)c(O)c2)oc2cc(O)cc(O)c12 [Quercetin Dihydrate],0.148,0.529,1.04,0.906
N#CC1(c2ccc(NC(=O)c3cccnc3NCc3ccncc3)cc2)CCCC1 [Apatinib],-0.141,0.463,-0.876,0.557
Cc1nn(-c2ccccc2)c(C)c1C=NN1CCN(Cc2ccccc2)CC1,0.488,1.49,1.38,0.479
COc1cccc2c1c(O)c(C(=O)N(C)c1ccc(C(F)(F)F)cc1)c(=O)n2C [Tasquinimod],0.717,0.197,2.04,-0.286
C=CC[N+]1([C@H]2C[C@H]3[C@@H]4CC[C@H]5C[C@H](O)[C@@H](N6CCOCC6)C[C@]5(C)[C@H]4CC[C@]3(C)[C@H]2OC(C)=O)CCCC1 [Rocuronium Bromide],1.3,1.17,0.449,0.764
CCOc1ccc(NC(=O)CC(C)O)cc1 (configuration not stated) [Bucetin],1.02,0.332,-0.707,0.389
CC(=O)Oc1cc2c(s1)CCN(C(C(=O)C1CC1)c1ccccc1F)C2 (configuration not stated) [Prasugrel Hydrochloride],0.0758,-0.334,0.54,0.33
CN1C(C(=O)Nc2ccccn2)=C(O)c2sccc2S1(=O)=O [Tenoxicam],1.57,0.438,-0.13,3.41
OCCN1CCN(CCCN2c3ccccc3Sc3ccc(C(F)(F)F)cc32)CC1 [Fluphenazine dihydrochloride],-2.6,-3.04,-3.05,-1.15

Structure (SMILES),nucleus area z-score [1],total neurite length per nucleus (z-score) [2],nucleus roundness z-score [3],KCl-induced FOS+/EGR-1+ double-positive nuclei fraction z-score [4]
CC(=O)Nc1ccc(C(=O)Nc2ccccc2N)cc1 [CI994 (Tacedinaline)],-12.9,-0.0752,-11.6,3.35
Cc1nc2c(-c3cnc(N)nc3)nc(N3CCOCC3)nc2n1C(C)C,-6.12,-2.63,-2.18,0.675
CC(=O)OCC(=O)NCCCOc1cccc(CN2CCCCC2)c1 [Roxatidine Acetate HCl],-0.117,3.15,0.0458,2.04
CC(=O)O[C@@]12CO[C@@H]1C[C@H](O)[C@@]1(C)C(=O)[C@H](O)C3=C(C)[C@@H](OC(=O)[C@H](O)[C@@H](NC(=O)OC(C)(C)C)c4ccccc4)C[C@@](O)([C@@H](OC(=O)c4ccccc4)[C@H]21)C3(C)C [Docetaxel],-1.13,0.765,-0.737,-0.63
OCC(CO)N[C@H]1C[C@](O)(CO)[C@@H](O)[C@H](O)[C@H]1O [Voglibose],3.54,-2.12,-0.806,0.135
Cc1cc(CS(=O)(=O)c2ccccc2)cc(OCc2ccc(CN3CCC[C@@H]3CO)cc2)c1,-0.0931,-1.96,-1.16,0.932
Cc1cccc(C)c1OCC(C)N (configuration not stated) [Mexiletine HCl],0.0101,0.395,0.258,0.269
CN1CCc2nc(C(=O)N[C@@H]3C[C@@H](C(=O)N(C)C)CC[C@@H]3NC(=O)C(=O)Nc3ccc(Cl)cn3)sc2C1 [Edoxaban],-0.42,0.744,0.362,0.447
Nc1ccn([C@@H]2O[C@H](CO)[C@@H](O)[C@H]2O)c(=O)n1 [Cytidine],0.378,-0.0602,0.6,0.268
CC(C)NC[C@H](O)COc1ccc(CCOCC2CC2)cc1 [Levobetaxolol HCl],0.476,-0.582,-0.175,0.759
CC(C)N(CCCNC(=O)Nc1ccc(C(C)(C)C)cc1)C[C@H]1O[C@@H](n2cc(Br)c3c(N)ncnc32)[C@H](O)[C@@H]1O,-0.0987,0.286,0.649,1.71
CNc1ncc2cc(-c3cc(NC(=O)NCCC(C)(C)C)c(F)cc3C)c(C)nc2n1,0.184,-0.0903,-1.88,-0.208
Nc1nc2c(ncn2[C@@H]2O[C@H](CO)[C@@H](O)[C@H]2O)c(=O)[nH]1 [Guanosine],0.453,0.994,0.369,1.67
O=c1c(O)c(-c2ccc(O)cc2)oc2cc(O)cc(O)c12 [Kaempferol],-0.0276,0.432,-0.505,0.596
Nc1[nH]nc2nnc(-c3c(-c4ccccc4)nn4ccccc34)cc12,0.638,1.98,1.26,1.19
O[C@@H](COc1cccc2ncccc12)CN1CCN(C2c3ccccc3[C@@H]3[C@H](c4ccccc42)C3(F)F)CC1 (some centres not stated),-2.38,-0.988,-1.28,-0.505
CC1=NN(c2ccc(C)c(C)c2)C(=O)/C1=N\Nc1cccc(-c2cccc(C(=O)O)c2)c1O [Eltrombopag],0.911,-0.506,0.309,-0.00451
CCN(CC)CCOC(=O)c1ccc(N)cc1 [Procaine],-0.804,0.0764,0.503,0.691
C[C@H](Oc1ccc(S(C)(=O)=O)cc1C(=O)N1CCN(c2ncc(C(F)(F)F)cc2F)CC1)C(F)(F)F [Bitopertin],2.29,-2.12,-1.88,-0.278
CNCc1cc(-c2ccccc2F)n(S(=O)(=O)c2cccnc2)c1,0.71,0.641,-0.353,0.0107

Structure (SMILES),nucleus area z-score [1],total neurite length per nucleus (z-score) [2],nucleus roundness z-score [3],KCl-induced FOS+/EGR-1+ double-positive nuclei fraction z-score [4]
COc1ccc(CCC(=O)c2c(O)cc(O[C@@H]3O[C@H](CO)[C@@H](O)[C@H](O)[C@H]3O[C@@H]3O[C@@H](C)[C@H](O)[C@@H](O)[C@H]3O)cc2O)cc1O [Neohesperidin Dihydrochalcone (Nhdc)],1.57,-0.382,-0.55,0.927
COC(=O)[C@H](CCSC)NC(=O)c1ccc(NC[C@@H](N)CS)cc1-c1ccccc1,-0.519,0.103,0.966,2.98
CCn1c(=O)c(-c2cc[nH]n2)cc2c(C)nc(N)nc21,-1.21,-0.19,0.103,-0.31
O=C(C1CCCCC1)N1CC(=O)N2CCc3ccccc3C2C1 (configuration not stated) [Praziquantel],-0.491,1.11,0.434,1.39
CSc1cccc(Nc2ncc3cc(-c4c(Cl)cccc4Cl)c(=O)n(C)c3n2)c1,-0.559,0.734,0.969,-0.477
C=C1CC[C@@H]2[C@](C)(CO)[C@H](O)CC[C@@]2(C)[C@@H]1C/C=C1/C(=O)OC[C@H]1O [Andrographolide],0.522,-0.911,-1.53,-0.731
NC(=O)N/N=C/c1ccc([N+](=O)[O-])o1 [Nitrofural],0.126,0.262,-0.133,-0.166
NC(=O)c1ccc(I)c([N+](=O)[O-])c1 [Iniparib (BSI-201)],0.0297,0.116,-1.36,-0.407
COc1ccc(C[C@H](NC(=O)[C@H](C)NC(=O)CN2CCOCC2)C(=O)N[C@@H](Cc2ccccc2)C(=O)[C@@]2(C)CO2)cc1,-14.7,-4.27,-1.61,-0.375
CCC(C)SSc1ncc[nH]1 (configuration not stated),-0.375,0.705,0.74,0.0994
CC1=C(/C=C/C(C)=C/C=C/C(C)=C/C(=O)O)C(C)(C)CCC1 [Tretinoin],0.126,-1.02,-1.82,-1.13
C[C@]1(O)C[C@@H](c2nc(-c3ccc4ccc(-c5ccccc5)nc4c3)c3c(N)nccn32)C1 [OSI-906 (Linsitinib)],-2.18,-0.684,-0.00736,-0.374
Cc1nc(N)sc1-c1ccnc(Nc2ccc(N3CCOCC3)cc2)n1,2.04,0.827,1.58,2.17
C[C@@H](CN1CC(=O)NC(=O)C1)N1CC(=O)NC(=O)C1 [Dexrazoxane HCl (ICRF-187_ ADR-529)],0.63,0.175,-0.395,0.396
COc1cccc(NC(=O)/C=C/c2ccc(Cl)cc2)c1,0.232,0.00157,0.347,1.88
O=C(c1ccc(F)c(F)c1Nc1ccc(I)cc1F)N1CC(O)([C@@H]2CCCCN2)C1 [Cobimetinib (GDC-0973_ RG7420)],-0.364,-1.08,-1.8,-0.593
COc1ccc([C@H]2CNC(=O)C2)cc1OC1CCCC1 [S- (+)-Rolipram],0.335,0.548,0.65,0.155
CC(=O)Oc1cccc2c1C(=O)c1c(OC(C)=O)cc(C(=O)O)cc1C2=O [Diacerein],0.115,0.438,0.544,0.864
